No constants are given. Whether binding was seen depends on the method and setting. Binding seen in cells or lysates may run through a third protein. Some binding calls cover weakened binding; strength is not graded here. Sequences can lack the tags named with a protein.
How the values were obtained:
[1] = target: T1, native RGS7-Gβ5 complex from mouse brain extract (mouse) (UniProt P62881+O54829); assay: GST pull-down on glutathione beads from mouse brain extract, western blot with anti-RGS7 and anti-Gβ5; D: densitometry of eight experiments [1B, 1C, 1D]
T1 sequence (looked up) 1: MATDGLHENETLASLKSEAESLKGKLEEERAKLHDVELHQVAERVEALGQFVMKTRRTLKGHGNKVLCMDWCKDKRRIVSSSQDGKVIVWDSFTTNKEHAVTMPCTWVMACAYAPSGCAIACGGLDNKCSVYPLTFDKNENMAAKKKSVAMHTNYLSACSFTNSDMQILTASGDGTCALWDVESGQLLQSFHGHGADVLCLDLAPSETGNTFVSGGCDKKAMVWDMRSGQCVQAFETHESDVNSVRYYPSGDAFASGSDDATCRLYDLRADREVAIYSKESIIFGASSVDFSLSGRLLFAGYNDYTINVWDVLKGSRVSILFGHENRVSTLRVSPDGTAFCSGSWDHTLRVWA
T1 sequence (looked up) 2: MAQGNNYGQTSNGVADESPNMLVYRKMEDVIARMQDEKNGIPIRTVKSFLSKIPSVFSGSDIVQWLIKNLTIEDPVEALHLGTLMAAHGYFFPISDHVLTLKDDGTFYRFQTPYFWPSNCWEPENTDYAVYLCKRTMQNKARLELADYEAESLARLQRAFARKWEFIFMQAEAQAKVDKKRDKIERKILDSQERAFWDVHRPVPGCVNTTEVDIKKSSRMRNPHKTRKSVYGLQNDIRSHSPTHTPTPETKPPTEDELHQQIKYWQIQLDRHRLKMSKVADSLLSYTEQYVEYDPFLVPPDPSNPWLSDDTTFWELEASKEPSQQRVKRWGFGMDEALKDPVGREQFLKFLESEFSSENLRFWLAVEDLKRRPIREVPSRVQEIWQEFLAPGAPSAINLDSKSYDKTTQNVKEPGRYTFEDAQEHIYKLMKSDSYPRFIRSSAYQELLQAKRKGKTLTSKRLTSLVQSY

Chains of the proteins cited; added tags and fusions are not shown. Residues count along the entry.
UniProt P62874, residues 2-340: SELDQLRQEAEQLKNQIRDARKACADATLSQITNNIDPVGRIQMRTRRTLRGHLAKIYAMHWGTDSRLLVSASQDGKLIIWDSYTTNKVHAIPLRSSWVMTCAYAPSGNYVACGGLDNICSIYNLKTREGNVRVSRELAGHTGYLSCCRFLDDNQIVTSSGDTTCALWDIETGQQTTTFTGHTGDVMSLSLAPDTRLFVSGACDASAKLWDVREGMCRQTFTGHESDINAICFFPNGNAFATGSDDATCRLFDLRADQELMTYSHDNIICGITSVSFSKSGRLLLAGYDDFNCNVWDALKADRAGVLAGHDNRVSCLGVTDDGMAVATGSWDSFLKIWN

[2] = target: T1, native RGS7-Gβ5 complex from mouse brain extract (mouse); assay: GST pull-down from tissue extract
[3] = target: native Gβ1 from mouse brain extract (mouse) (UniProt P62874); assay: GST pull-down on glutathione beads from mouse brain extract, western blot with anti-Gβ1
[4] = target: T1, native RGS7-Gβ5 complex from mouse brain extract (mouse); assay: GST pull-down from mouse brain extract, western blot with anti-RGS7 and anti-Gβ5
[5] = target: T1, native RGS7-Gβ5 complex from mouse brain extract (mouse); assay: GST pull-down from mouse brain extract, western blot
[6] = target: native Gβ1 from mouse brain extract (mouse) (UniProt P62874); assay: as above

binding [1]: binds | binding [2]: binds | binding [3]: binds | binding [4]: binds | binding [5]: binds | binding [6]: binds
B1: GST-R7DEP (GST fusion of amino acids 34-124 of bovine RGS7) (protein, UniProt O46470 34-124, looked up, not shown: a dimerising Fc or GST)
chain: MQDEKNGIPIRTVKSFLSKIPSVFSGSDIVQWLIKNLTIEDPVEALHLGTLMAAHGYFFPISDHVLTLKDDGTFYRFQTPYFWPSNCWEPE

— patent US20100183584A1, “CONFORMATION AND ACTIVITY OF GBETA5 COMPLEXES” (University Of Miami, priority 2007, published 2010)
